The exact form of at least one protein or probe is not confirmed.
Test system: PmeI restriction endonuclease (Pseudomonas mendocina NEB 698 (ATCC 55181))
Experiment: enzyme reaction in vitro
Details: blunt cleavage between 4th and 5th bases; 37 C, 30 min; Mg2+ present in extension reaction; purified native protein

GTTTAAAC (double strand)
activity on this sequence: active

Reference: patent US5196330
